# Primary screen of a compound library

Amino acid sequences for entries named in this document (tags omitted). Residues count along the entry.
UniProt Q8IDJ8, 1-583: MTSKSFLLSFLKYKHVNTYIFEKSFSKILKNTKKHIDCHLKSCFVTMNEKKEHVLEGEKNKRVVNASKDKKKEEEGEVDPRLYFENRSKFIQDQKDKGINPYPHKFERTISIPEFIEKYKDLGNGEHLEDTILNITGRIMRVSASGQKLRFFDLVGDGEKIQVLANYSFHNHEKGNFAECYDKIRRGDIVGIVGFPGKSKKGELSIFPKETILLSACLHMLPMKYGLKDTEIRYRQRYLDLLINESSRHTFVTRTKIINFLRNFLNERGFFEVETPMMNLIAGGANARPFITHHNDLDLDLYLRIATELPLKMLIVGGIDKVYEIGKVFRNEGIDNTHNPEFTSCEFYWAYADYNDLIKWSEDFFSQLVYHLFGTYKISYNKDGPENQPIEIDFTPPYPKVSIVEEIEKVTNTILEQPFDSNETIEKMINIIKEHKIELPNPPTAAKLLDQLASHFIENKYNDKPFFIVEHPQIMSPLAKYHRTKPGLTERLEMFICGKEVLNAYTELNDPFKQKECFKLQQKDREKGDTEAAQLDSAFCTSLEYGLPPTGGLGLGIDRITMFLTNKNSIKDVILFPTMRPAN
UniProt I6X8D2, whole entry: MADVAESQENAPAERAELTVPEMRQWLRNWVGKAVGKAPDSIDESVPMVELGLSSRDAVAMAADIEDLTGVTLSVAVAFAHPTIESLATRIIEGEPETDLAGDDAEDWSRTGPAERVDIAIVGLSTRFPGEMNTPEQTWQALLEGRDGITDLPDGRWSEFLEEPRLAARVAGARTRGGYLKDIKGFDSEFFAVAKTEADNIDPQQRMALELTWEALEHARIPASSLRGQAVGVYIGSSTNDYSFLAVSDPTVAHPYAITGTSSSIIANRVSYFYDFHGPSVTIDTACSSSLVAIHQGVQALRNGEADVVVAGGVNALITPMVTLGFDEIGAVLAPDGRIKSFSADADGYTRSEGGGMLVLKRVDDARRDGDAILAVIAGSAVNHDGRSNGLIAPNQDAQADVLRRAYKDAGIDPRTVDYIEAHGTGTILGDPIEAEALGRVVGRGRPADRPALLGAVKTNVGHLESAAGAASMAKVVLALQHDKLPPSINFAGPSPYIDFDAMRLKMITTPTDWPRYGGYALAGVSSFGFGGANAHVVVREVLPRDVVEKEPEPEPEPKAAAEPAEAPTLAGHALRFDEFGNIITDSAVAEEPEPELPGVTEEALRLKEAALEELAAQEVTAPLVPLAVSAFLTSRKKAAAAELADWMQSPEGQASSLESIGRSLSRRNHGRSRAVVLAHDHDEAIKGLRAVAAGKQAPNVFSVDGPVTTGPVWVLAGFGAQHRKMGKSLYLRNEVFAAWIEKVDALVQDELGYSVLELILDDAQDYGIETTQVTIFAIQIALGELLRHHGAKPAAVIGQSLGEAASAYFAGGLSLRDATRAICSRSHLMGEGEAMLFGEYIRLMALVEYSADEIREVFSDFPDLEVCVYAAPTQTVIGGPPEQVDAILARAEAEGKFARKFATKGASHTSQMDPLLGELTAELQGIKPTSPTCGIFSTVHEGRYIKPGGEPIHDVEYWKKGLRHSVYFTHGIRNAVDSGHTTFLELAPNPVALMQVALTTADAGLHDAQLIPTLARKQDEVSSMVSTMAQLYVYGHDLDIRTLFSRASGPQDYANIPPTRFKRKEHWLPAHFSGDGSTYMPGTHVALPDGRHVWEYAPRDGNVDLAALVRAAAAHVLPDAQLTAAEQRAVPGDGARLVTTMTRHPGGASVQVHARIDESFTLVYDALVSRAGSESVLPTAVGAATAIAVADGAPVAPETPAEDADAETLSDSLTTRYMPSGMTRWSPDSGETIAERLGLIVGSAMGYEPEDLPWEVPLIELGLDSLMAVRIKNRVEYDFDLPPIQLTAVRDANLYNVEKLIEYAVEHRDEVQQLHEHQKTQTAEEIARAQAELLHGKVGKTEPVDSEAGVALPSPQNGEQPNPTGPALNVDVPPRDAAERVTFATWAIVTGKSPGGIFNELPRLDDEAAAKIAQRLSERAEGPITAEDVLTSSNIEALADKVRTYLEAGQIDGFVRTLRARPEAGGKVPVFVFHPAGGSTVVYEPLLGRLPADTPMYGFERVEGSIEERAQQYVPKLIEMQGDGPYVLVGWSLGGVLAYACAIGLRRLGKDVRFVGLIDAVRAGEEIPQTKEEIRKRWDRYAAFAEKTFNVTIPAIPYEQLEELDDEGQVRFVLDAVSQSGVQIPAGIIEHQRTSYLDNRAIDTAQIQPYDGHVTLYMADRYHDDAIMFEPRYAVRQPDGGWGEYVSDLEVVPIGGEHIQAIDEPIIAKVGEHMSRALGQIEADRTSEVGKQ
UniProt P9WFT3, whole entry: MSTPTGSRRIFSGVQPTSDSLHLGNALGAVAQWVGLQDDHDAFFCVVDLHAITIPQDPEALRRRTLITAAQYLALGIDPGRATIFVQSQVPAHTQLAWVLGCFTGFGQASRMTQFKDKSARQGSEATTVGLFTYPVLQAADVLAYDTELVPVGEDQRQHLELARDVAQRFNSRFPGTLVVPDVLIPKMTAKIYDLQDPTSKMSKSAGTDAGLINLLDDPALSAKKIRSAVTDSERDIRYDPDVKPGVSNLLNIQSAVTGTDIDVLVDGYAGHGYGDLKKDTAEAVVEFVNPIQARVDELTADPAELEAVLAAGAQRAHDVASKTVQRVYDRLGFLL
UniProt Q4DA54, 1-478: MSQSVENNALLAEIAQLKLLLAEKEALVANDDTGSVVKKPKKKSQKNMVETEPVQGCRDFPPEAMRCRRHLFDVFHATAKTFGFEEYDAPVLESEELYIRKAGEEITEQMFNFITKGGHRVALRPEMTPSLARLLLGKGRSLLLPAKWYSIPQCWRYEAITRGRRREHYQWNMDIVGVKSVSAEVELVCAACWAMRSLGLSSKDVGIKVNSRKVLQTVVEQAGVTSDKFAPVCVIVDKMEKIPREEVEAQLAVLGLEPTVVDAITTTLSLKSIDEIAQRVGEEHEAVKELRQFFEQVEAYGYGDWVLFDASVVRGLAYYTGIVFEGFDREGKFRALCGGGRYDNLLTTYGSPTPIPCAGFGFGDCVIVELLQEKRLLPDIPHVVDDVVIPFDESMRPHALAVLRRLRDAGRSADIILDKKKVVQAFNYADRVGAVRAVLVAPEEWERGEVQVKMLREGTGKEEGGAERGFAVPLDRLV

The values are deposited in ChEMBL (CHEMBL3988442, “University of Dundee, Small-Polar-MMV Screening Library” (2021)).

A: 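Enzyme assay of the cytosolic lysyl-tRNA synthetase in 384-well plates, read by luminescence. Target: Lysine-tRNA ligase, Plasmodium falciparum 3D7 (UniProt Q8IDJ8). Concentration: 30 µM. Direction is inferred from only a few compounds that gave an IC50; most scored high, so higher reads as stronger inhibition. Of about 69,000 compounds tested this way, about 49 (0.071%) reached 50% or more in at least one test.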
B: 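Polyketide synthase Pks13, Mycobacterium tuberculosis (UniProt I6X8D2). Enzyme assay of the thioesterase domain of polyketide synthase 13; the read-out is not stated. Concentration: 30 µM. Higher reads as stronger inhibition (inferred from which compounds were picked for retests). Size under these conditions: about 67,000 compounds, about 300 of them at 50% or above in at least one test.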
C: 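Enzyme assay of tryptophanyl-tRNA synthetase; the read-out is not stated. Target: Tryptophan-tRNA ligase, Mycobacterium tuberculosis (UniProt P9WFT3). Concentration: 10 µM. Direction is not recorded; retested compounds ran higher, which suggests that high means inhibition. About 65,000 compounds were tested under these conditions; 0.098% (about 64) showed 50% or more at least once.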
D: 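Enzyme assay of histidyl-tRNA synthetase; the read-out is not stated. Target: Histidine-tRNA ligase, Trypanosoma cruzi CL Brener (UniProt Q4DA54). Compounds at 30 µM. Direction is inferred from retests: higher values go with stronger inhibition. Size under these conditions: about 69,000 compounds, about 31 of them at 50% or above in at least one test.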

Each number is a percent effect as filed. How 0% and 100% were set is not recorded. Most values in the screen are low, and negative values occur. The compounds are a random part of those screened. A dash means the value is not listed here; it may have been measured.

| Compound | A | B | C | D |
|---|---|---|---|---|
| `Cc1nc(C2CCN(C(=O)c3cnc(N(C)C)nc3)CC2)c2sccn12` | 4.14% | 13.44% | - | 13.33% |
| `CCCn1nccc1-c1nccnc1CC1CCN(C(C)=O)CC1` | 1.268% | 2.17% | 1.762% | 8.812% |
| `Cc1ccc(CN(C)C(=O)C(C)n2cncn2)o1` (stereo unspecified) | 2.03% | -4.403% | -8.062% | 6.349% |
| `Cc1nc(Nc2ncccn2)cc(C2CCCN2C)n1` (stereo unspecified) | 0.6465% | 7.248% | - | 2.247% |
| `Cc1cccc(CN2C(=O)CCC23CCN(Cc2cccn2C)CC3)n1` | 7.26% | 5.326% | 2.214% | 15.04% |
| `CCOc1ccc(C(=O)CC(SC2CCCCC2)C(=O)O)cc1` (stereo unspecified) | 4.594% | 12.48% | 2.001% | 1.042% |
| `Cc1ccsc1-c1nnc(SCC(=O)O)n1C(C)c1ccccc1` (stereo unspecified) | 3.32% | -47.11% | -3.454% | 4.95% |
| `O=C(Cc1ccon1)N(CCC(F)(F)F)C1CCCC1` | 3.995% | -6.588% | 0.6353% | 5.172% |
| `Cc1nc(N2CCC3(CCCN(C(C)C)C3=O)C2)c2sccc2n1` (stereo unspecified) | 1.118% | -34.64% | 3.922% | 6.579% |
| `CCc1nc(C)ncc1C(=O)N1CCOC(c2nc(C)n[nH]2)C1` (stereo unspecified) | -0.7602% | -3.279% | -4.601% | 1.69% |
| `Cn1cc(CNc2cnn(CC3CCCO3)c2)c(-c2ccncc2)n1` (stereo unspecified) | 12.71% | -2.725% | 1.763% | 8.621% |
| `CC(O)CN1CCN(Cc2coc(-c3ccc(Cl)cc3)n2)CC1` (stereo unspecified) | -0.899% | -19.73% | 3.916% | 4.571% |
| `CC(C)c1nc(C2CCCN(C(=O)CCn3ccccc3=O)C2)no1` (stereo unspecified) | -1.186% | -20.33% | 15.64% | 1.17% |
| `CCN(C)S(=O)(=O)c1ccc(Cl)cc1C#N` | 1.998% | -7.346% | 1.192% | 4.217% |
| `OCC1CCCN1c1cc(NCCc2ccccn2)ncn1` (stereo unspecified) | 6.225% | 2.116% | -4.079% | -2.439% |
| `Cc1cc(C2CCC2)nc(N2CCN(Cc3nccn3C)CC2)n1` | 6.706% | -36.65% | 1.57% | 7.407% |
| `CCc1ccccc1CNC(=O)CNCC(F)(F)F` | 0.7912% | -18.29% | 1.821% | 6.349% |
| `COc1ccccc1-c1nnc2n1NC(N)=C(C#N)S2` | 1.423% | -4.225% | -0.8862% | 2.439% |
| `CC(=O)NCCCC(=O)NC(C)c1nnc2n1CCC2` (stereo unspecified) | -1.355% | -11.45% | 5.221% | 1.714% |
| `O=c1cc(CN2CCCC2)nc2n1CCCN(Cc1ccoc1)C2` | 3.729% | 6.539% | 1.826% | 14.07% |
| `Cc1cccc(-n2ncc3c2CCCC3NCc2cnn(C)c2C)c1C` (stereo unspecified) | 2.35% | -12.83% | 2.288% | -2.41% |
| `CN(C)C(=O)CN1C(=O)CCC12CCN(Cc1ccsc1)CC2` | 2.419% | -15.42% | -5.473% | 4.327% |
| `Cc1ccc(-c2nc(CN3CCc4cnc(C)nc4C3)no2)cc1` | -1.209% | - | -4.023% | 13.83% |
| `CCn1ccnc1CN(C)C(=O)Cn1ccc2ccccc2c1=O` | 1.692% | -6.282% | 0.8972% | 9.278% |
| `Cc1cc(N2CCCC(c3[nH]ncc3Cc3ccccc3)C2)nc(N)n1` (stereo unspecified) | -0.566% | 6.691% | 1.104% | 10.23% |
| `CCCc1nc(CN2CCCC(c3noc(C4CC4)n3)C2)no1` (stereo unspecified) | 1.729% | -2.127% | -3.39% | 5.523% |
| `C1CC(CO[C@@H]2CC[C@H]3[C@H]2OCCN3CC2CC2)CCO1` | 3.184% | 0.5629% | 0.3856% | 0.6135% |
| `Cc1occc1C(=O)N1CCCn2cnc(CN3CCCC3=O)c2C1` | 2.408% | -14.02% | -4.083% | 8.411% |
| `COCCn1ccc2c(C(=O)NCC3CCCO3)cccc21` (stereo unspecified) | 4.013% | 2.578% | -3.119% | -1.242% |
| `CS(=O)(=O)N[C@H]1CN(C(=O)CCc2ccco2)C[C@@H]1C1CC1` | -0.1249% | -9.734% | -1.286% | -1.948% |
| `O=C(C[S+]([O-])Cc1cccc(F)c1)NC1CCCC1` (stereo unspecified) | 5.601% | -22.87% | 2.963% | 11.9% |
| `Cc1cnc(CC2COCCN(C(=O)CN3CCCCC3)C2)cn1` (stereo unspecified) | -0.4721% | 9.69% | -0.1447% | 9.302% |
| `C[C@@H]1CN(Cc2nc(C(N)=O)no2)CC[C@@]1(O)C1CCOCC1` | -0.8823% | -6.416% | 2.397% | 6.667% |
| `COc1ccccc1N1CC(NC(=O)Cn2cc(C)nn2)CC1=O` (stereo unspecified) | 1.451% | 0.4778% | 3.03% | 4.215% |
| `CC(C)c1nccc(CN2CCC(O)(CN3CCCCC3)C2)n1` (stereo unspecified) | 8.48% | -8.191% | -0.8051% | 4% |

The last 3 entries again:

C[C@@H]1CN(Cc2nc(C(N)=O)no2)CC[C@@]1(O)C1CCOCC1 gave A: -0.8823%; B: -6.416%; C: 2.397%; D: 6.667%.
COc1ccccc1N1CC(NC(=O)Cn2cc(C)nn2)CC1=O (stereo unspecified) gave A: 1.451%; B: 0.4778%; C: 3.03%; D: 4.215%.
CC(C)c1nccc(CN2CCC(O)(CN3CCCCC3)C2)n1 (stereo unspecified) gave A: 8.48%; B: -8.191%; C: -0.8051%; D: 4%.